Experiment: general procedure: solution-phase peptide synthesis; HATU/DIPEA; TSTU/DIPEA for NHS esters; diethylcyanophosphonate/DIPEA
Conditions: late stage modification step

With cemadotin C5 the step yield was “(88%)”.

Reference: patent US11202837B2 (Antikor Biopharma Limited, priority 2014, dated 2021)
